Measurements reported in PubChem BioAssay AID743454 (Peter MacCallum Cancer Centre, 2014).
Test: 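Search for knock-downs that restore vorinostat killing in resistant colon cancer cells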 (primary screen). Cell system: human HCT116-VR colon cancer cells, selected for vorinostat resistance. Reagent: siRNA pool against human genes, 40 nM siRNA pool. Time to read-out: vorinostat for 24 h, read-out about 72 h after transfection. Conditions: vorinostat at 2.5 µM final. Read-out: 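Cell viability by CellTiter-Fluor and caspase 3/7 activity by luminescence, each scaled to mock wells per plate, duplicates averaged, then robust z-scored over all plates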. Reading the numbers: viability robust z-score: higher = more viable cells than screen typical; caspase robust z-score: higher = more caspase 3/7 activity than screen typical. Rule for the call: 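a knock-down is a hit when classed RV1 or RV2 for lowered viability, or CA1 or CA2 for caspase activation; those lethal without drug were dropped; hits were retested singly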.
The whole screen tested about 18,000 reagents; shown is a random part of them. Over the whole deposit, 450 (2.5%) are marked active. 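Single biological run; no consistent viability z cut-off exists, so the class columns, not z-scores, define the calls.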

The first 2 entries, to show the layout:
HNRNPH3 (heterogeneous nuclear ribonucleoprotein H3) | viability hit class: no change; caspase hit class: no change; viability robust z-score: -0.44; caspase robust z-score: -0.77; activity call: inactive
PKD1L1 | viability hit class: no change; caspase hit class: no change; viability robust z-score: -0.34; caspase robust z-score: 0.04; activity call: inactive

The list itself, from the start:
HNRNPH3 (heterogeneous nuclear ribonucleoprotein H3) | viability hit class: no change; caspase hit class: no change; viability robust z-score: -0.44; caspase robust z-score: -0.77; activity call: inactive
PKD1L1 | viability hit class: no change; caspase hit class: no change; viability robust z-score: -0.34; caspase robust z-score: 0.04; activity call: inactive
SYCP2L (synaptonemal complex protein 2 like) | viability hit class: no change; caspase hit class: no change; viability robust z-score: -0.25; caspase robust z-score: 0.44; activity call: inactive
GIPR (gastric inhibitory polypeptide receptor) | viability hit class: no change; caspase hit class: no change; viability robust z-score: 0.44; caspase robust z-score: -0.6; activity call: inactive
C22orf42 (chromosome 22 open reading frame 42) | viability hit class: no change; caspase hit class: no change; viability robust z-score: -1.32; caspase robust z-score: -0.76; activity call: inactive
BEST1 (bestrophin 1) | viability hit class: no change; caspase hit class: no change; viability robust z-score: -0.16; caspase robust z-score: -0.54; activity call: inactive
PCDHA6 (protocadherin alpha 6) | viability hit class: no change; caspase hit class: no change; viability robust z-score: -1.33; caspase robust z-score: 3.88; activity call: inactive
MESP1 (mesoderm posterior bHLH transcription factor 1) | viability hit class: no change; caspase hit class: no change; viability robust z-score: 1.06; caspase robust z-score: 1.27; activity call: inactive
OR10X1 (olfactory receptor family 10 subfamily X member 1) | viability hit class: no change; caspase hit class: no change; viability robust z-score: 0.04; caspase robust z-score: -0.77; activity call: inactive
MUSK (muscle associated receptor tyrosine kinase) | viability hit class: no change; caspase hit class: no change; viability robust z-score: -0.62; caspase robust z-score: 1.08; activity call: inactive
CES1 (carboxylesterase 1) | viability hit class: no change; caspase hit class: no change; viability robust z-score: -0.58; caspase robust z-score: -0.39; activity call: inactive
TRAPPC3 (trafficking protein particle complex subunit 3) | viability hit class: no change; caspase hit class: no change; viability robust z-score: 1.1; caspase robust z-score: -0.21; activity call: inactive
MC3R (melanocortin 3 receptor) | viability hit class: no change; caspase hit class: no change; viability robust z-score: -0.94; caspase robust z-score: -0.04; activity call: inactive
GPR151 (G protein-coupled receptor 151) | viability hit class: no change; caspase hit class: no change; viability robust z-score: 0.41; caspase robust z-score: -0.02; activity call: inactive
CHCHD4 (coiled-coil-helix-coiled-coil-helix domain containing 4) | viability hit class: no change; caspase hit class: no change; viability robust z-score: -0.99; caspase robust z-score: -0.01; activity call: inactive
HERC2P3 (HERC2 pseudogene 3) | viability hit class: no change; caspase hit class: no change; viability robust z-score: 0.62; caspase robust z-score: 0.78; activity call: inactive
PCDHA11 (protocadherin alpha 11) | viability hit class: no change; caspase hit class: no change; viability robust z-score: -0.38; caspase robust z-score: 1.52; activity call: inactive
SHE (Src homology 2 domain containing E) | viability hit class: no change; caspase hit class: no change; viability robust z-score: -0.9; caspase robust z-score: 1.42; activity call: inactive
MCM3 (minichromosome maintenance complex component 3) | viability hit class: no change; caspase hit class: no change; viability robust z-score: -2.36; caspase robust z-score: 1.98; activity call: inactive
RNASEH2B (ribonuclease H2 subunit B) | viability hit class: no change; caspase hit class: no change; viability robust z-score: -0.24; caspase robust z-score: -1.25; activity call: inactive
KLHL18 (kelch like family member 18) | viability hit class: no change; caspase hit class: no change; viability robust z-score: 0.56; caspase robust z-score: -1.22; activity call: inactive
